Measurements: PubChem BioAssay AID1671190 (National Center for Advancing Translational Sciences (NCATS), 2021)
Screen size: about 580,000 compounds; about 6,100 (1.1%) were called active. The shares of active, inactive and inconclusive entries below differ from those in the screen. The call rests on the fitted dose curve; in most records, active means well fitted inhibition curve with a large enough effect; inconclusive means small, poorly fitted or top-dose-only effect, or another doubt; inactive means no such curve, though single readings can be large or run the other way. Where the call is inconclusive, the potency comes from a doubtful curve fit.

The chains behind the UniProt entries cited, without tags or fusion partners. Where a name states a change or a piece, a line headed by the entry shows the natural chain unless it says otherwise.
UniProt P18054: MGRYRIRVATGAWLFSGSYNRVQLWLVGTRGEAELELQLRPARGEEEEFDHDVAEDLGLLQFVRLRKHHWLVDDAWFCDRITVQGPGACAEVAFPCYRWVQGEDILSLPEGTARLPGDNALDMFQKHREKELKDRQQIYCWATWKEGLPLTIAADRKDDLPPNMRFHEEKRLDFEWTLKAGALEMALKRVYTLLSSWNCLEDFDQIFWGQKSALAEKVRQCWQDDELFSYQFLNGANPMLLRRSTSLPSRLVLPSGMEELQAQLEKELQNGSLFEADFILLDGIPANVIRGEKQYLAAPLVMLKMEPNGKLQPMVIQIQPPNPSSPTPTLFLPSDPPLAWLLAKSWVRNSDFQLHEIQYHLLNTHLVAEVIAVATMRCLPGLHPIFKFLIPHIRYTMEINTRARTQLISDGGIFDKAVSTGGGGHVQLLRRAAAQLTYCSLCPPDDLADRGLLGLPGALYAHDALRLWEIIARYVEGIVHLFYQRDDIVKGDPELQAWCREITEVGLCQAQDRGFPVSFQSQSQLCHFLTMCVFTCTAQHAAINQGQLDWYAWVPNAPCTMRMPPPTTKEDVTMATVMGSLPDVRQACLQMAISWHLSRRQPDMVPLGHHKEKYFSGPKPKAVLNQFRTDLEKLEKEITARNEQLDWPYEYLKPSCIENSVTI

Target: Polyunsaturated fatty acid lipoxygenase ALOX12 (Homo sapiens) (UniProt P18054)
Assay: Primary qHTS assay for inhibitors of human arachidonate 12S-lipoxygenase (ALOX12): Round 2
Settings: purified 12hLO, xylenol orange hydroperoxide absorbance; series mostly up to 108 µM
Method in brief: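 Purified human 12hLO (150 nM final) in 25 mM Hepes, 0.01% Triton X-100, pH 7.0 was preincubated 15 min at room temperature with compound. Then 40 uM arachidonic acid was added, 30 min. Hydroperoxide was read by Fe-XO absorbance ratio 573/405 nm.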
Potency means the concentration at half of the fitted maximal effect.

Row | Compound | Potency
1 | c1ccc(-c2ccc(Oc3ncnc4sc(-c5ccccc5)cc34)cc2)cc1 | inactive
2 | COc1ccccc1-c1noc(CCC(=O)Nc2ccccc2Cl)n1 | inconclusive: 44.7 µM [inhibitor, partial curve, poor fit]
3 | COc1ccc(C(=O)N(Cc2ccco2)Cc2ccccc2F)cc1Cl | inconclusive: 56.2 µM [inhibitor, partial curve, poor fit]
4 | CC(=O)Nc1ccc(S(=O)(=O)Nc2nc3ccccc3nc2Nc2ccc3ccccc3c2)cc1 | inconclusive: 39.8 µM [inhibitor, partial curve]
5 | CC(CCN1CCOCC1)c1ccccc1 (configuration not stated) | inconclusive: 2 µM [inhibitor, full curve, poor fit]
6 | Cc1ccc(Cc2c(C3CCCCC3)nc3ccc(Br)cn23)cc1 | inconclusive: 39.8 µM [inhibitor, partial curve, poor fit]
7 | COc1cc(OC)c2[nH]c(C(=O)OC(C)C(=O)c3ccccc3)cc2c1 (configuration not stated) | inconclusive: 31.6 µM [inhibitor, partial curve, poor fit]
8 | COCC(=O)N(Cc1cc2ccc(C)cc2[nH]c1=O)c1ccccc1C | inconclusive: 79.4 µM [inhibitor, partial curve, poor fit]
9 | CC(NC(=O)C1CCN(Cc2ccc(Oc3ccccc3)cc2)CC1)c1cccc2ccccc12 (configuration not stated) | inconclusive: 89.1 µM [inhibitor, single point]
10 | CN1CCC(C(=O)c2ccccc2)C1=O (configuration not stated) | inconclusive: 100 µM [inhibitor, single point]
11 | CCOC(=O)CC1(C)OCC(C[N+]2(C)CCCCC2)O1 (configuration not stated) | inconclusive: 50.1 µM [inhibitor, partial curve, poor fit]
12 | Brc1ccccc1CN1CCC(Cc2ccccc2)CC1 | inconclusive: 0.447 µM [inhibitor, full curve, poor fit]
13 | COc1ccc(NC(=O)c2ccc(COc3ccccc3Br)o2)c(OC)c1 | inconclusive: 50.1 µM [inhibitor, partial curve, poor fit]
14 | COc1ccc(-c2cc(C(F)(F)F)c(C#N)c(SCC(=O)Nc3cccc(C)c3)n2)cc1 | inactive
15 | Cc1cc(=O)n2nc(N3CCCC(C(=O)NCc4ccc5c(c4)OCO5)C3)sc2n1 (configuration not stated) | inconclusive: 70.8 µM [inhibitor, partial curve, poor fit]
16 | O=C1c2ccccc2-c2onc3ccc(N4CCCC4)c1c23 | inconclusive: 44.7 µM [inhibitor, partial curve]
17 | C/C(=N/NC(=O)COc1cc(C)ccc1C(C)C)C(=O)O | inactive
18 | CN(C)S(=O)(=O)NC(=O)c1cc(Br)ccc1F | inactive
19 | CCCCSc1nc2c(=O)[nH][nH]c(=O)c2n1Cc1ccccc1 | inconclusive: 14.1 µM [inhibitor, partial curve, poor fit]
20 | FC(F)(F)c1cc(Cl)c2nc(-c3cccc(Cl)c3)c(Cc3cccc(Cl)c3)n2c1 | inconclusive: 39.8 µM [inhibitor, partial curve, poor fit]
21 | CCSC(SCC)C(O)C(O)C(O)CO (configuration not stated) | inactive

Row | Compound | Potency
22 | Cc1ccc(SCC(=O)N2CCN(S(=O)(=O)c3cccs3)CC2)cc1 | inconclusive: 50.1 µM [inhibitor, partial curve, poor fit]
23 | CC(Sc1nc(NC(C)(C)C)nc(N(C)C)n1)C(=O)Nc1ccccc1 (configuration not stated) | inactive
24 | COc1cc(Br)cc2cc(C(=O)OC3CCN(C)CC3)c(=O)oc12 | inconclusive: 158 µM [inhibitor, single point]
25 | COP(=O)(OC)c1nc(-c2ccc([N+](=O)[O-])cc2)oc1NCc1ccc(F)cc1 | inconclusive: 141 µM [inhibitor, partial curve, poor fit]
26 | CC(=O)N1CCN(C(=O)CNC(=O)c2cccs2)CC1 | inactive
27 | N#Cc1nc(COc2ccc(Br)cc2)oc1NCc1ccncc1 | inconclusive: 44.7 µM [inhibitor, single point]
28 | CC[C@@]1(O)CCN(CC(=O)NCc2cc(C(=O)O)ccc2C)C[C@H]1O | inconclusive: 11.2 µM [inhibitor, partial curve, poor fit]
29 | CC1=NN(c2nc(C)cc(C)n2)C(=O)C1Cc1ccc(C)cc1 (configuration not stated) | inconclusive: 8.91 µM [inhibitor, full curve]
30 | CC(C)C(=O)Nc1ccc(-c2csc(NCc3ccco3)n2)cc1 | inconclusive: 8.91 µM [inhibitor, partial curve, poor fit]
31 | O=c1[nH]c(=O)n(C2CCCO2)cc1F (configuration not stated) | inconclusive: 99.3 µM [inhibitor, single point]
32 | COc1ccc(NC(=O)Cn2nnc(C(=O)NCc3ccccc3OC)c2N)cc1Cl | inconclusive: 141 µM [inhibitor, partial curve, poor fit]
33 | S=C(NCc1ccccc1)NCc1ccc(Cl)cc1 | inconclusive: 44.7 µM [inhibitor, partial curve, poor fit]
34 | O=C(C1CCCN(Cc2ccc(Br)cc2)C1)N1CCCCC1 (configuration not stated) | inconclusive: 3.16 µM [inhibitor, full curve, poor fit]
35 | CCOC(=O)c1[nH]c2ccc(Cl)cc2c1NC(=O)c1nonc1C | inconclusive: 112 µM [inhibitor, single point]
36 | CC(Sc1ccc2c(c1)OCCO2)C(=O)O (configuration not stated) | inconclusive: 50.1 µM [inhibitor, single point]
37 | CCOC(=O)c1c(NC(=O)C[n+]2ccc(Cc3ccccc3)cc2)sc(C)c1C | active: 44.7 µM
38 | CCOc1ccc(CCNC(=O)c2ccc3nc(N4CCC(C)CC4)sc3c2)cc1OCC | inactive
39 | CN=C(NC)NCc1cccc(Br)c1 | inconclusive: 0.501 µM [inhibitor, full curve, poor fit]
40 | O=C(C[n+]1cccc(C(=O)Nc2ccccc2)c1)c1ccccc1 | inconclusive: 100 µM [inhibitor, single point]
41 | COc1ccc(-c2c(-c3ccsc3)oc3c2C(O)CCC3)cn1 (configuration not stated) | inconclusive: 100 µM [inhibitor, single point]
42 | NC(c1ccccc1)c1cccs1 (configuration not stated) | inconclusive: 141 µM [inhibitor, single point]

A portion taken from the entries so far, as a working copy:
Row | Compound | Potency
15 | Cc1cc(=O)n2nc(N3CCCC(C(=O)NCc4ccc5c(c4)OCO5)C3)sc2n1 (configuration not stated) | inconclusive: 70.8 µM [inhibitor, partial curve, poor fit]
16 | O=C1c2ccccc2-c2onc3ccc(N4CCCC4)c1c23 | inconclusive: 44.7 µM [inhibitor, partial curve]
